Source: the supplement of paper PMC10849652
The other results are listed elsewhere or left out.

Sequences of proteins named here, by UniProt entry; tags and fusion partners are left off. A change or cut given only in a name is not applied to a line headed by its entry.
UniProt P63218: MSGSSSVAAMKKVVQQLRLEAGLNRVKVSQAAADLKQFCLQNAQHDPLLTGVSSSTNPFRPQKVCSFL
UniProt Q3T8J9: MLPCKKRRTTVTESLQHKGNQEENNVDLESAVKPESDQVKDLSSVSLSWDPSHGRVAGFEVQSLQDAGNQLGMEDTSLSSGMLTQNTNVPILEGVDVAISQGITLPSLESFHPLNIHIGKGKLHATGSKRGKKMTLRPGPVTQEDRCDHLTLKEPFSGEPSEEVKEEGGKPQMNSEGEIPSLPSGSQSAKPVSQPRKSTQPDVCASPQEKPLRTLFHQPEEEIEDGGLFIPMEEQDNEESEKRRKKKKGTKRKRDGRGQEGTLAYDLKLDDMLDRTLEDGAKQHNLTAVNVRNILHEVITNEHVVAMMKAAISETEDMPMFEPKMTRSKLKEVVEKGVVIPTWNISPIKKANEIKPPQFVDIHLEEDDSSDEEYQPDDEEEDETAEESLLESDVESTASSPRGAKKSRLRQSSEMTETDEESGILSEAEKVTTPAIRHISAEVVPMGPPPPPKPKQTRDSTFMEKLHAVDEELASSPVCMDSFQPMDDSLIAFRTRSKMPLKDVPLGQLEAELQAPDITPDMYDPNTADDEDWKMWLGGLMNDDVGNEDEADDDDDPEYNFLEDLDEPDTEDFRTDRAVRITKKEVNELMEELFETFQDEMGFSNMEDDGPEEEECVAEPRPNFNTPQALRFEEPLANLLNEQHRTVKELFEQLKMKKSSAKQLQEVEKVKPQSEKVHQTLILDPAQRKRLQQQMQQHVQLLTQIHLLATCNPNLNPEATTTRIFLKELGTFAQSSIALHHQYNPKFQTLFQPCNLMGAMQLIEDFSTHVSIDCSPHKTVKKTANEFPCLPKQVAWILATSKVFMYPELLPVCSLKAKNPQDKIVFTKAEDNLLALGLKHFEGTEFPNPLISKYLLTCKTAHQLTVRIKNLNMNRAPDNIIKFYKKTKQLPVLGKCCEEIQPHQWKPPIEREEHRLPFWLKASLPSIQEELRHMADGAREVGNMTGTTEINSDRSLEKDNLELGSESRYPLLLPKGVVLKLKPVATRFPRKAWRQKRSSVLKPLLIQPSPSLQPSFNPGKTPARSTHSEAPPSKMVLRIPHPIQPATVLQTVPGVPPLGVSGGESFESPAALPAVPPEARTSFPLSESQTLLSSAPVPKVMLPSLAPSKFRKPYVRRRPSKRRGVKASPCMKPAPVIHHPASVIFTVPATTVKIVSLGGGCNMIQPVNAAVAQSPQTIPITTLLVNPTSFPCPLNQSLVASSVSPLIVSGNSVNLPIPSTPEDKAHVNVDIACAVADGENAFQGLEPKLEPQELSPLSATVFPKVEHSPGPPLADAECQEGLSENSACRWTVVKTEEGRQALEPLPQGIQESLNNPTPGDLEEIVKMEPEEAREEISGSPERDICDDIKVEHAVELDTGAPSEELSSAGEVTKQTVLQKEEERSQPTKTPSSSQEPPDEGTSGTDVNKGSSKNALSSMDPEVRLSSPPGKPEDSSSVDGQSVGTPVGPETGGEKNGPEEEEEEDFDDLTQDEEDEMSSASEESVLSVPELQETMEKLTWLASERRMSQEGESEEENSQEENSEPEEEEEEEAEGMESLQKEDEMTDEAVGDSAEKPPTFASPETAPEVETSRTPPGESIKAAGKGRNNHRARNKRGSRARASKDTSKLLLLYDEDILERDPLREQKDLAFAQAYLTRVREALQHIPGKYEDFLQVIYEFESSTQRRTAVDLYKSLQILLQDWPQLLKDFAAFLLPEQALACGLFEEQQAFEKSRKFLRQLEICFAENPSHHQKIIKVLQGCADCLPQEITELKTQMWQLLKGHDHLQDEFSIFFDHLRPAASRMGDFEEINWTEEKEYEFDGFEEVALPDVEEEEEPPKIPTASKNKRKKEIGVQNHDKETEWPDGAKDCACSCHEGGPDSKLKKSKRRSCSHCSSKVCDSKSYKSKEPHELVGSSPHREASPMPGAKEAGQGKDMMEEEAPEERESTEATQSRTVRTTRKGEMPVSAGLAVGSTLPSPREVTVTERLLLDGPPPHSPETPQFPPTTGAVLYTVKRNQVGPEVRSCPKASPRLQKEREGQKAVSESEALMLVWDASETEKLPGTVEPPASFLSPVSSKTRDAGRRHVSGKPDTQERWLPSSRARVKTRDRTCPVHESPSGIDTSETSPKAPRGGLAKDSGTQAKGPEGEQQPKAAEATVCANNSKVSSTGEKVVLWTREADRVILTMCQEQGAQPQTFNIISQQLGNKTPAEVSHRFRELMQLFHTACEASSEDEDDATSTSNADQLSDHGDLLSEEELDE
UniProt P15586: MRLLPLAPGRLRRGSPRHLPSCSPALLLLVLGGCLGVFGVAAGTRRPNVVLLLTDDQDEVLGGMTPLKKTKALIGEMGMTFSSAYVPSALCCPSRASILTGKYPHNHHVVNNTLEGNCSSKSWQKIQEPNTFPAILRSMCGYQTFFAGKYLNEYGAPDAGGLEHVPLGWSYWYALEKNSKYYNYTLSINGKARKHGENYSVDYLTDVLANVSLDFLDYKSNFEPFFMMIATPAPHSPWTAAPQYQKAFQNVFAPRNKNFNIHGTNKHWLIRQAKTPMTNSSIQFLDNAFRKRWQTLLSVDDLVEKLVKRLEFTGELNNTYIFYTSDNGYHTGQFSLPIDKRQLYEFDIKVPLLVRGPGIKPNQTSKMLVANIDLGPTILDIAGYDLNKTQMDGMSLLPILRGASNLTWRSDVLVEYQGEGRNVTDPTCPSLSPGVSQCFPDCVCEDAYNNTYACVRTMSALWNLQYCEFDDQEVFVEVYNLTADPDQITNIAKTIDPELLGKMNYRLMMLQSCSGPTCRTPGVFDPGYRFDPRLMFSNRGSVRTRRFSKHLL
UniProt Q5JWF2, whole entry, looked up: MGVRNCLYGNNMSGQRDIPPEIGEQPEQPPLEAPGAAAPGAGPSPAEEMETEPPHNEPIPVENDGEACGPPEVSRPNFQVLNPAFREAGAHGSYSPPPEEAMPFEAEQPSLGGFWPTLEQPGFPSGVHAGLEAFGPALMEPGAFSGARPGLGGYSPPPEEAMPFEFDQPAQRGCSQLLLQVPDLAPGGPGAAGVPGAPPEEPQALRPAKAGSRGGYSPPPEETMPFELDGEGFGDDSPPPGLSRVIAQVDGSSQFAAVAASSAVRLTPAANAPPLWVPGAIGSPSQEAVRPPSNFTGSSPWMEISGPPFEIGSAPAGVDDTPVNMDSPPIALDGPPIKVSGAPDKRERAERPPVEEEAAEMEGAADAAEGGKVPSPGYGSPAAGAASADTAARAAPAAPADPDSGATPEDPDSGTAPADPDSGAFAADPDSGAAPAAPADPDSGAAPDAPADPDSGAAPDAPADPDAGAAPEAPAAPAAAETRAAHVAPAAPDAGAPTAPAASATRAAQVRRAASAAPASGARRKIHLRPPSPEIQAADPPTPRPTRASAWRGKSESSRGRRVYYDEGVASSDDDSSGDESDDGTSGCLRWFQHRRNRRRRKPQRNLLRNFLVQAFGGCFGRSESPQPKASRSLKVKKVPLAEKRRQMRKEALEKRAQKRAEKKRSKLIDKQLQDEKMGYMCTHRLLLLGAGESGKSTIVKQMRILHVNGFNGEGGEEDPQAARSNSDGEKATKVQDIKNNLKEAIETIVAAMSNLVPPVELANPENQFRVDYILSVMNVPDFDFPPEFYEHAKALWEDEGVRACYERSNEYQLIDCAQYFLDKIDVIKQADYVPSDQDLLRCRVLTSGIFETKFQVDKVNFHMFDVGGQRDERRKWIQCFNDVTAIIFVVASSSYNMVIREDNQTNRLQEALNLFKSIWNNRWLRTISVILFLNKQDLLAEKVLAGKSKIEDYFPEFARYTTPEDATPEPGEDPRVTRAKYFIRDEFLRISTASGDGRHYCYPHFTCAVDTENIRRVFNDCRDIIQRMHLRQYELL
UniProt Q9H4G4: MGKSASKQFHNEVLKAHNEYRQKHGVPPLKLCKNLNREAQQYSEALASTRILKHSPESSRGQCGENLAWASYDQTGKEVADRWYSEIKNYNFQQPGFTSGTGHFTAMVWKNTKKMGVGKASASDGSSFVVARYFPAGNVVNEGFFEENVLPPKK
UniProt Q9P107: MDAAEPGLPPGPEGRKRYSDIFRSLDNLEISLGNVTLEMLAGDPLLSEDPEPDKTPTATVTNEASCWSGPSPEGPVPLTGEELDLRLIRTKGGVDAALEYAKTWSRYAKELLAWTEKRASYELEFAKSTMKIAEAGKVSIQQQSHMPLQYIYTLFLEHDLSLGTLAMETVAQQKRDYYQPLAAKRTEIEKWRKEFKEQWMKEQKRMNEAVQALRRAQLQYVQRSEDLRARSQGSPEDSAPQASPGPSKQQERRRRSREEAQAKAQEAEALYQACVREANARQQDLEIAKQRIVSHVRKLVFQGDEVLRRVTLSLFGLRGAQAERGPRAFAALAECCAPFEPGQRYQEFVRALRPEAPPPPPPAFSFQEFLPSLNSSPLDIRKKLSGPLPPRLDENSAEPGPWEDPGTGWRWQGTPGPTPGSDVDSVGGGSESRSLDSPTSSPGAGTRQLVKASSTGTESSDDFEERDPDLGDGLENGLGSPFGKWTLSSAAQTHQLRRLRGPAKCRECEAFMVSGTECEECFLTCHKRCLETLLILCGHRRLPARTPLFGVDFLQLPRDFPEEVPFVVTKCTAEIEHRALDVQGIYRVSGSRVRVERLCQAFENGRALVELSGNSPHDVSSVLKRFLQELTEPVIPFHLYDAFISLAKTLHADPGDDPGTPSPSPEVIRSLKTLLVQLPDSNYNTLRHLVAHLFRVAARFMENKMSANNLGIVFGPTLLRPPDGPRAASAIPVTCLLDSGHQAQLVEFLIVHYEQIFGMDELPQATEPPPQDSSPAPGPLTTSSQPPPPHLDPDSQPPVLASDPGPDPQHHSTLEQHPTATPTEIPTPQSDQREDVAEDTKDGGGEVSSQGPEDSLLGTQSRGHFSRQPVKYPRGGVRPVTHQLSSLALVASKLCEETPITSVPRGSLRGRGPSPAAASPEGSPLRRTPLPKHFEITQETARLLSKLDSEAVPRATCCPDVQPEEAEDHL
UniProt P16278: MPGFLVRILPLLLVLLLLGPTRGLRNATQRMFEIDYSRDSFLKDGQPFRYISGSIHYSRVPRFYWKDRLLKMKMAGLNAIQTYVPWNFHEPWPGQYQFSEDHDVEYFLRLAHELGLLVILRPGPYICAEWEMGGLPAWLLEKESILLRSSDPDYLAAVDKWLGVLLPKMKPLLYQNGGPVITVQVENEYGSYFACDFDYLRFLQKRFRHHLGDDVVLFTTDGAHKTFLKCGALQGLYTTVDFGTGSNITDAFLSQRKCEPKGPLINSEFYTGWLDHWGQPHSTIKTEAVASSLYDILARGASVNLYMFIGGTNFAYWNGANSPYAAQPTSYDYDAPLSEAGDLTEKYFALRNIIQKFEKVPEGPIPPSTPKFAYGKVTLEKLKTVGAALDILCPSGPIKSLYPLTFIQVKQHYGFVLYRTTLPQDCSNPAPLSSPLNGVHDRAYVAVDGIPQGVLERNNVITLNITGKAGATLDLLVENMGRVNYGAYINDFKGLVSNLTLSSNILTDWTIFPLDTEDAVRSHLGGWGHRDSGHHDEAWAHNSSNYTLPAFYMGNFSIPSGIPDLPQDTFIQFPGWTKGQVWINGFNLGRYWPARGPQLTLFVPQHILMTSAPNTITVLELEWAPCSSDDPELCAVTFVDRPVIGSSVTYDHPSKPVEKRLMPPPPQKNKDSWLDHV
UniProt Q9Y4H4: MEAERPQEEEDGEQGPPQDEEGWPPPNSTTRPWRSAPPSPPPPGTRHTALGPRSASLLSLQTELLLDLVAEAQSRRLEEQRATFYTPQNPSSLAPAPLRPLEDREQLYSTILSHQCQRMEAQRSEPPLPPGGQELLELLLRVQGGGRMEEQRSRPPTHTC
UniProt Q49A26: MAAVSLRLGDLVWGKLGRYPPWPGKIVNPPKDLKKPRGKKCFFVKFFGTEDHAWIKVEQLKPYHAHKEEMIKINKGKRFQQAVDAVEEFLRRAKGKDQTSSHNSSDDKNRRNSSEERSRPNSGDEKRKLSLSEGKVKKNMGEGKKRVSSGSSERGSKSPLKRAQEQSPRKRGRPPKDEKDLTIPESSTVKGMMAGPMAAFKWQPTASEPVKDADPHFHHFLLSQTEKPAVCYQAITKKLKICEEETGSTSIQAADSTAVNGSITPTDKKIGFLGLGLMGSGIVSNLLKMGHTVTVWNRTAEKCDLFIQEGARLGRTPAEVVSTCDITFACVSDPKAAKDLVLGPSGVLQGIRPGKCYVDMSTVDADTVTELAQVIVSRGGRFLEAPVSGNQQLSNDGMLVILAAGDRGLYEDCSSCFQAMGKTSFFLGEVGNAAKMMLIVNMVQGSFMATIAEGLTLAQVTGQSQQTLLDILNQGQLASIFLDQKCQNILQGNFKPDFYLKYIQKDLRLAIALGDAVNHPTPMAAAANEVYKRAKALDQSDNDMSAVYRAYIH
UniProt Q9Y248: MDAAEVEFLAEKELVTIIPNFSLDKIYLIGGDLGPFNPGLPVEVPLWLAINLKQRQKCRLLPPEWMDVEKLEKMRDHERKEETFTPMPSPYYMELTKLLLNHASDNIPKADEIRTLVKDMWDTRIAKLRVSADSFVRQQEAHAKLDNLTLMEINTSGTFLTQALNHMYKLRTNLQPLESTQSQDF

Columns and labels:
Assay in all cases: log2 fold change, soluble protein after heating vs DMSO (PISA); higher = thermal stabilisation; K562 cells, 10 uM, 30 min; active = over 0.2 and 3.5 SD of the protein, either way, in both replicates (recomputed)
[1] = compound: CN1CCN(CCOc2cc(OC3CCOCC3)c3c(Nc4c(Cl)ccc5c4OCO5)ncnc3c2)CC1 [saracatinib]
How it was run: (§1)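 Soluble protein was quantified by TMTpro 16plex LC-MS/MS after channel sums were equalised. It was obtained as the supernatant after 21,000xg for 90 min from pooled aliquots of K562 cells (2×10^6 cells/mL, 10 μM compound, 30 min) heated for 3 min across 48°C-58°C and extracted in PBS with 0.5% NP-40 at 4°C. Thermal stability values are relative to control samples and come from duplicates. They are given as log2 fold changes.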

[2] = compound: CN1CCN(c2nc(C3=C(c4c[nH]c5ccccc45)C(=O)NC3=O)c3ccccc3n2)CC1 [sotrastaurin]
How it was run: as §1

[3] = compound: CN1CCc2c(c3ccccc3n2Cc2ccc(C(=O)NO)cc2)C1 [Tubastatin A]
How it was run: as §1

[4] = compound: CNC(=O)C1=CC=CC=C1NC2=NC(=NC=C2Cl)NC3=C(C=C(C=C3)N4CCOCC4)OC
How it was run: as §1

[5] = compound: CNC(=O)c1ccc(Nc2ncc(C(F)(F)F)c(NCc3nccnc3N(C)S(C)(=O)=O)n2)cc1 [defactinib]
How it was run: as §1

[6] = compound: CNCc1ccc(-c2[nH]c3cc(F)cc4c3c2CCNC4=O)cc1 [rucaparib]
How it was run: as §1

[7] = compound: CNc1nc(-c2ccc3c(N)n[nH]c3c2)cc(N2C[C@@H](C(=O)NC3CCCCC3)CC[C@H]2C)n1
How it was run: as §1

[8] = compound: COC(=O)N[C@@H](C)CNc1nccc(-c2cn(C(C)C)nc2-c2cc(Cl)cc(NS(C)(=O)=O)c2F)n1 [encorafenib]
How it was run: as §1

[9] = compound: COC(=O)[C@H](CCSC)NC(=O)C1=C(C=C(C=C1)NC[C@H](CS)N)C2=CC=CC=C2
How it was run: as §1

[10] = compound: COC1=CC=C(C=C1)CN2C=CC3=C2C=C(C=C3)C(=O)NO
How it was run: as §1

[11] = compound: CON(C)C(=O)N1N=C(c2cc(F)ccc2F)S[C@@]1(CCCN)c1ccccc1 [filanesib]
How it was run: as §1

[12] = compound: CO[C@H]1C[C@@H]2CC[C@@H](C)[C@@](O)(O2)C(=O)C(=O)N2CCCC[C@H]2C(=O)O[C@H]([C@H](C)C[C@@H]2CC[C@H](n3cnnn3)[C@H](OC)C2)CC(=O)[C@H](C)/C=C(\C)[C@@H](O)[C@@H](OC)C(=O)[C@H](C)C[C@H](C)/C=C/C=C/C=C/1C [zotarolimus]
How it was run: as §1

[13] = compound: COc1cc(C(=O)O)ccc1NC(=O)[C@@H]1N[C@@H](CC(C)(C)C)[C@](C#N)(c2ccc(Cl)cc2F)[C@H]1c1cccc(Cl)c1F [idasanutlin]
How it was run: as §1

[14] = compound: COc1cc(Nc2ncc3c(n2)-c2ccc(Cl)cc2C(c2c(F)cccc2OC)=NC3)ccc1C(=O)O [alisertib]
How it was run: as §1

[15] = compound: COc1cc2nc(-c3cc(F)ccc3O)nc(N[C@@H]3CNC[C@H]3C(C)(C)O)c2cc1OC
How it was run: as §1

[16] = compound: COc1cc2ncnc(Nc3ccc(F)c(Cl)c3)c2cc1OCCCN1CCOCC1 [gefitinib]
How it was run: as §1

[17] = compound: COc1cccc2cc(-c3nc([C@H]4CC[C@H](C(=O)O)CC4)n4ncnc(N)c34)[nH]c12
How it was run: as §1

[18] = compound: CS(=O)(=O)CCNCc1ccc(-c2ccc3ncnc(Nc4ccc(OCc5cccc(F)c5)c(Cl)c4)c3c2)o1 [lapatinib]
How it was run: as §1

[19] = compound: CS(=O)(=O)N1CCN(Cc2cc3nc(-c4cccc5[nH]ncc45)nc(N4CCOCC4)c3s2)CC1 [pictilisib]
How it was run: as §1

[20] = compound: CN1CC[C@H](c2c(O)cc(O)c3c(=O)cc(-c4ccccc4Cl)oc23)[C@H](O)C1 [alvocidib]
How it was run: as §1

Measured: log2 fold change

GPX4 (UniProt P36969)
active: [3] -0.371 | [12] -0.248
inactive: [1] 0.043 | [2] 0.004 | [4] -0.02 | [5] -0.009 | [6] 0.002 | [7] -0.037 | [8] -0.009 | [9] -0.013 | [10] -0.035 | [11] -0.011 | [13] 0.032 | [14] -0.02 | [15] 0.003 | [16] -0.004 | [17] 0.076 | [18] -0.036 | [19] -0.034

GNG5 (UniProt P63218)
inactive: [1] 0.022 | [2] 0.033 | [3] 0.049 | [4] 0.028 | [5] -0.041 | [6] -0.002 | [7] -0.041 | [8] -0.073 | [9] -0.008 | [10] 0.082 | [11] 0.086 | [12] -0.016 | [13] 0.065 | [14] -0.146 | [15] -0.022 | [16] 0.224 | [17] 0.079 | [18] -0.006 | [19] -0.087

GON4L (UniProt Q3T8J9)
inactive: [1] 0.053 | [2] -0.032 | [20] -0.093 | [3] -0.068 | [6] 0.047 | [7] -0.017 | [8] 0.123 | [10] 0.039 | [11] -0.048 | [12] 0.001 | [13] 0.165 | [14] -0.058 | [15] 0.154 | [16] -0.05 | [17] 0.193 | [18] 0.038

GOLIM4 (UniProt F8W785)
inactive: [1] 0.014 | [2] 0.075 | [20] 0.035 | [3] 0.05 | [5] 0.025 | [6] 0.079 | [7] 0.006 | [8] 0.012 | [9] -0.021 | [10] -0.025 | [11] -0.004 | [12] -0.034 | [16] 0.074 | [19] 0.054

GNS (UniProt P15586)
inactive: [1] 0.014 | [2] 0.041 | [3] -0.012 | [4] -0.007 | [5] -0.011 | [6] 0 | [7] -0.034 | [8] 0.009 | [9] -0.009 | [10] -0.014 | [11] -0.041 | [12] -0.05 | [13] -0.002 | [14] -0.034 | [15] -0.011 | [16] 0.017 | [17] 0.039 | [18] -0.024 | [19] 0.014

GNAS (UniProt Q5JWF2)
inactive: [1] -0.023 | [2] 0.036 | [3] 0.011 | [4] -0.004 | [5] 0.012 | [6] 0.029 | [7] 0.069 | [8] 0.021 | [9] -0.041 | [10] -0.048 | [11] 0 | [12] -0.03 | [13] -0.048 | [14] -0.09 | [15] 0.052 | [16] 0.108 | [17] -0.077 | [18] 0.02 | [19] 0.051

2 records picked at random from those above, as already listed:
GOLIM4 (UniProt F8W785)
inactive: [1] 0.014 | [2] 0.075 | [20] 0.035 | [3] 0.05 | [5] 0.025 | [6] 0.079 | [7] 0.006 | [8] 0.012 | [9] -0.021 | [10] -0.025 | [11] -0.004 | [12] -0.034 | [16] 0.074 | [19] 0.054

GNAS (UniProt Q5JWF2)
inactive: [1] -0.023 | [2] 0.036 | [3] 0.011 | [4] -0.004 | [5] 0.012 | [6] 0.029 | [7] 0.069 | [8] 0.021 | [9] -0.041 | [10] -0.048 | [11] 0 | [12] -0.03 | [13] -0.048 | [14] -0.09 | [15] 0.052 | [16] 0.108 | [17] -0.077 | [18] 0.02 | [19] 0.051

Further records.

GLS isoform 3 (UniProt O94925)
inactive: [1] -0.025 | [2] -0.027 | [3] 0.14 | [4] -0.025 | [5] -0.139 | [6] -0.045 | [7] -0.063 | [8] 0.039 | [9] 0 | [10] -0.021 | [11] -0.029 | [12] 0.008 | [13] -0.26 | [14] -0.003 | [15] 0.216 | [16] 0.041 | [17] 0.031 | [18] 0 | [19] 0.078

GLCCI1 (UniProt Q86VQ1)
inactive: [1] -0.017 | [2] -0.016 | [3] 0.082 | [4] -0.057 | [5] -0.072 | [6] 0.087 | [7] -0.063 | [8] 0.026 | [9] -0.051 | [10] 0.009 | [11] 0.052 | [12] 0.067 | [13] 0.11 | [14] -0.025 | [15] -0.096 | [16] 0.109 | [17] 0.083 | [18] -0.02 | [19] -0.039

GLIPR2 (UniProt Q9H4G4)
inactive: [1] 0.002 | [2] -0.027 | [3] -0.002 | [4] 0.036 | [5] 0.047 | [6] 0.015 | [7] 0.035 | [8] -0.062 | [9] -0.013 | [10] 0 | [11] -0.147 | [12] 0.024 | [13] 0.096 | [14] -0.031 | [15] -0.239 | [17] -0.036 | [18] 0.103 | [19] -0.011

GLA (UniProt P06280)
inactive: [1] 0.056 | [2] -0.027 | [3] -0.027 | [4] -0.02 | [5] 0.008 | [6] 0.04 | [7] -0.043 | [8] -0.022 | [9] 0.059 | [10] 0.033 | [11] -0.048 | [12] -0.003 | [13] 0.06 | [14] -0.089 | [15] 0.018 | [16] -0.011 | [17] 0.01 | [18] -0.026 | [19] -0.06

GRN (UniProt P28799)
inactive: [1] -0.063 | [2] 0.068 | [20] 0.058 | [3] 0.059 | [4] 0.034 | [5] 0.047 | [7] 0.038 | [9] -0.017 | [10] 0.004 | [11] 0.016 | [12] -0.121 | [13] 0.034 | [14] -0.132 | [15] 0.082 | [16] 0.17 | [17] 0.029 | [18] 0.12 | [19] 0.039

GLRX3 (UniProt O76003)
inactive: [1] -0.017 | [2] -0.066 | [3] 0.015 | [4] 0.053 | [5] -0.091 | [6] -0.063 | [7] -0.023 | [8] 0.029 | [9] -0.03 | [10] 0.005 | [11] -0.056 | [12] 0.056 | [13] -0.001 | [14] -0.063 | [15] 0.012 | [16] -0.009 | [17] -0.018 | [18] 0.062 | [19] -0.003

GMIP (UniProt Q9P107)
inactive: [1] -0.291 | [2] 0.105 | [20] 0.054 | [3] 0.129 | [4] -0.143 | [7] -0.001 | [10] 0.087 | [11] 0.038 | [12] -0.024 | [16] -0.1

GLB1 (UniProt P16278)
inactive: [1] -0.011 | [2] 0.059 | [3] -0.032 | [4] 0.034 | [5] 0.004 | [6] 0 | [7] 0.002 | [8] 0.003 | [9] 0.036 | [10] 0.002 | [11] -0.033 | [12] 0.009 | [13] -0.015 | [14] -0.078 | [15] -0.015 | [16] 0.031 | [17] 0.045 | [18] 0.024 | [19] 0.006

GPSM3 (UniProt Q9Y4H4)
inactive: [1] -0.134 | [2] 0.19 | [20] -0.509 | [5] 0.175 | [6] -0.004 | [7] -0.118 | [8] -0.128 | [9] -0.278 | [11] -0.129 | [12] 0.1 | [13] -0.168 | [14] -0.245 | [15] -0.089 | [16] 0.002 | [17] 0.073 | [18] -0.235

GLYR1 (UniProt Q49A26)
inactive: [1] 0.007 | [2] 0.028 | [3] -0.077 | [4] 0.021 | [5] -0.029 | [6] 0.211 | [7] 0.04 | [8] -0.044 | [9] -0.033 | [10] -0.024 | [11] 0.125 | [12] -0.04 | [13] 0 | [14] 0.071 | [15] -0.092 | [16] 0.113 | [17] -0.07 | [18] 0.169 | [19] -0.228

GINS2 (UniProt Q9Y248)
inactive: [1] -0.078 | [2] -0.17 | [3] 0.076 | [4] 0.025 | [5] -0.067 | [6] -0.005 | [7] 0.203 | [8] 0.017 | [9] 0.057 | [10] 0.057 | [11] -0.021 | [12] 0.29 | [14] -0.069 | [15] 0.025 | [16] 0.035 | [17] -0.089 | [18] -0.026 | [19] -0.119

GOLGB1 isoform 2 (UniProt Q14789)
active: [11] 0.337
inactive: [1] -0.056 | [2] -0.121 | [3] 0.029 | [4] 0.048 | [5] 0 | [6] 0.02 | [7] -0.001 | [8] -0.04 | [9] 0.003 | [10] -0.16 | [12] -0.04 | [13] 0.066 | [14] -0.069 | [15] 0.072 | [16] -0.02 | [17] -0.051 | [18] 0.046 | [19] 0.066
